Source: paper PMC7337904
Construct, isoform or probe ends are uncertain for at least one entry.

Target: AvaII restriction endonuclease (wild type) (UniProt Q8YYB7)
Test: X-ray crystallography
Conditions: Ca2+, recombinant protein

Sequence	binding result (DNA partially cleaved, closed specific complex)	binding result (1.8 A, open scanning complex, backbone contacts only, disordered duplex, DNA:RNA hybrid)
GTAGGACCATC (double strand) [11-bp dsDNA used for crystals]	binds	–
GUAGGACCAUG / CCATGGTCCTA [11-nt RNA/DNA heteroduplex used for crystals]	–	binds
